Results are given in words; binding and its absence hold for the method and conditions named.

Experiment [1] deals with Latent TGFβ binding protein-4 (LTBP4S) C-terminal region, wild type (human) (UniProt Q8N2S1). Kind of experiment: AUC; sedimentation velocity, 0.4-1 mg/ml, 10 mM Tris, 150 mM NaCl, pH 7.4, 45,000 rpm, 20°C; both purified.
For experiment [2] the target is unchanged. Kind of experiment: SEC-MALS; 0.5 ml at approximately 0.4-1 mg/ml on Superdex 200 10/300GL, 10 mM Tris, 150 mM NaCl, pH 7.4; both purified. (In general: SEC sorts molecules by how far they enter the pores of the column.)
Experiment [3] concerns the target Latent TGFβ binding protein-4 (LTBP4S) N-terminal region, wild type (human) (UniProt Q8N2S1). Kind of experiment: AUC; sedimentation velocity, 0.4-1 mg/ml, 10 mM Tris, 150 mM NaCl, pH 7.4, 45,000 rpm, 20°C; both purified.
Experiment [4] has the same target. Kind of experiment: SEC-MALS; 0.5 ml at approximately 0.4-1 mg/ml on Superdex 200 10/300GL, 10 mM Tris, 150 mM NaCl, pH 7.4; both purified.

B1: Latent TGFβ binding protein-4 (LTBP4S) C-terminal region, wild type (domain or fragment, human, UniProt Q8N2S1-2 1114-1557, looked up)
chain: RECYFDTAAPDACDNILARNVTWQECCCTVGEGWGSGCRIQQCPGTETAEYQSLCPHGRGYLAPSGDLSLRRDVDECQLFRDQVCKSGVCVNTAPGYSCYCSNGYYYHTQRLECIDNDECADEEPACEGGRCVNTVGSYHCTCEPPLVLDGSQRRCVSNESQSLDDNLGVCWQEVGADLVCSHPRLDRQATYTECCCLYGEAWGMDCALCPAQDSDDFEALCNVLRPPAYSPPRPGGFGLPYEYGPDLGPPYQGLPYGPELYPPPALPYDPYPPPPGPFARREAPYGAPRFDMPDFEDDGGPYGESEAPAPPGPGTRWPYRSRDTRRSFPEPEEPPEGGSYAGSLAEPYEELEAEECGILDGCTNGRCVRVPEGFTCRCFDGYRLDMTRMACVDINECDEAEAASPLCVNARCLNTDGSFRCICRPGFAPTHQPHHCAPARPRA
notes: numbers count on: LTBP4S; N-glycosylated (PNGase-F shift); also called CWT; C WT
Take B1: the binding entry in experiment [1] and in experiment [2] was “no binding (tested: 0.4–1 mg/ml)” throughout.

B2: Latent TGFβ binding protein-4 (LTBP4S) N-terminal region, wild type (domain or fragment, human, UniProt Q8N2S1-2 29-394, looked up)
chain: GERLRVRFTPVVCGLRCVHGPTGSRCTPTCAPRNATSVDSGAPGGAAPGGPGFRAFLCPLICHNGGVCVKPDRCLCPPDFAGKFCQLHSSGARPPAPAVPGLTRSVYTMPLANHRDDEHGVASMVSVHVEHPQEASVVVHQVERVSGPWEEADAEAVARAEAAARAEAAAPYTVLAQSAPREDGYSDASGFGYCFRELRGGECASPLPGLRTQEVCCRGAGLAWGVHDCQLCSERLGNSERVSAPDGPCPTGFERVNGSCEDVDECATGGRCQHGECANTRGGYTCVCPDGFLLDSSRSSCISQHVISEAKGPCFRVLRDGGCSLPILRNITKQICCCSRVGKAWGRGCQLCPPFGSEGFREICPA
notes: numbers count on: LTBP4S; N-glycosylated (PNGase-F shift); Biotinylated when immobilised on streptavidin biosensors in the fibronectin BLI experiment (general BLI methods); also called NWT; LTBP4 N-terminal region
For B2, the binding entry in experiment [3] and in experiment [4] was “no binding (tested: 0.4–1 mg/ml)” each time.

The values are drawn from paper PMC8446450, “Autosomal Recessive Cutis Laxa 1C Mutations Disrupt the Structure and Interactions of Latent TGFβ Binding Protein-4” (Frontiers in Genetics, 2021).
